Measurements taken from article PMC10097667.
Results are given in words; binding and its absence hold for the method and conditions named. In cells and extracts the contact can be indirect. Some entries that bind do so weakly or less than the wild type. Tags and fused reporters may be left off the sequences shown.

B1: HA-Spry2 WT (full-length protein) (protein, UniProt O43597 1-315)
chain: MEARAQSGNGSQPLLQTPRDGGRQRGEPDPRDALTQQVHVLSLDQIRAIRNTNEYTEGPTVVPRPGLKPAPRPSTQHKHERLHGLPEHRQPPRLQHSQVHSSARAPLSRSISTVSSGSRSSTRTSTSSSSSEQRLLGSSFSSGPVADGIIRVQPKSELKPGELKPLSKEDLGLHAYRCEDCGKCKCKECTYPRPLPSDWICDKQCLCSAQNVIDYGTCVCCVKGLFYHCSNDDEDNCADNPCSCSQSHCCTRWSAMGVMSLFLPCLWCYLPAKGCLKLCQGCYDRVNRPGCRCKNSNTVCCKVPTVPPRNFEKPT
B2: HA-Spry2-Cter (truncated mutant spanning residues 177-315 of Spry2) (domain or fragment, UniProt O43597 177-315)
chain: RCEDCGKCKCKECTYPRPLPSDWICDKQCLCSAQNVIDYGTCVCCVKGLFYHCSNDDEDNCADNPCSCSQSHCCTRWSAMGVMSLFLPCLWCYLPAKGCLKLCQGCYDRVNRPGCRCKNSNTVCCKVPTVPPRNFEKPT
B3: HA-Spry2-Nter (truncated mutant spanning residues 1-177 of Spry2) (domain or fragment, UniProt O43597 1-177)
chain: MEARAQSGNGSQPLLQTPRDGGRQRGEPDPRDALTQQVHVLSLDQIRAIRNTNEYTEGPTVVPRPGLKPAPRPSTQHKHERLHGLPEHRQPPRLQHSQVHSSARAPLSRSISTVSSGSRSSTRTSTSSSSSEQRLLGSSFSSGPVADGIIRVQPKSELKPGELKPLSKEDLGLHAYR

The binders below were run against T1, GFP-PKD1 WT (UniProt Q62101) (assay: co-IP; HEK293T cells transiently co-transfected with GFP-PKD WT or GFP vector and HA-Spry2 constructs; cytoplasmic extracts (HEPES 25 mM pH 7.5, NaCl, 1% NP40) incubated with anti-GFP polyclonal rabbit antibody or unspecific rabbit IgG; immunoblot with anti-HA).
T1 sequence: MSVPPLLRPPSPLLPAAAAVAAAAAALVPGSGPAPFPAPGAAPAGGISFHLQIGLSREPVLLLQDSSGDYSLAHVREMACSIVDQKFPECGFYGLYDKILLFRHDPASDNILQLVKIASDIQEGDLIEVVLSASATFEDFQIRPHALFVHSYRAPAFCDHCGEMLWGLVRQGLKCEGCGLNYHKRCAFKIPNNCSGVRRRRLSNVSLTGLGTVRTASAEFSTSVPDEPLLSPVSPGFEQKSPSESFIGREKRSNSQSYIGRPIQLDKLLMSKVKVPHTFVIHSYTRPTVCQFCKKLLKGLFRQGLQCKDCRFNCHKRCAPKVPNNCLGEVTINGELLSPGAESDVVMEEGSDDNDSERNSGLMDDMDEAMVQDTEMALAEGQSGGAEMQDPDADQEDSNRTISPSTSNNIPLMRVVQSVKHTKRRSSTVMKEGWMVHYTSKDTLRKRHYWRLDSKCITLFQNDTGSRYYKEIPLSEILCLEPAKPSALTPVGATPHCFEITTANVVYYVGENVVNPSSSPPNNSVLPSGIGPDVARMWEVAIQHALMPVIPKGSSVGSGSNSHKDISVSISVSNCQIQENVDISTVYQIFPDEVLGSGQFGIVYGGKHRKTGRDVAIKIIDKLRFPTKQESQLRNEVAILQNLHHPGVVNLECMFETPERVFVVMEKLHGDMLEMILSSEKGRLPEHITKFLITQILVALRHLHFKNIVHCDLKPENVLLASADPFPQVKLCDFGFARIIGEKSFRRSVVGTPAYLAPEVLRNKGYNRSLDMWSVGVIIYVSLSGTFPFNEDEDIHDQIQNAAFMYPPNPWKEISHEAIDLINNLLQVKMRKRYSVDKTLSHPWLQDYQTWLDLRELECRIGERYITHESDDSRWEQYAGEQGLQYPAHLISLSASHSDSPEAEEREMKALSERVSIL
B1 was tested, and the binding was “binds”. With B2 the binding was “binds”. In the case of B3, the binding is reported as “no binding”.
